# In PubChem BioAssay AID540256 (National Center for Advancing Translational Sciences (NCATS), 2011):
# “And” between values parts separate entries of the source, which are not always exact repeats. Equal values may be shown once. In all, about 300,000 compounds went through this assay and about 3,700 (1.2%) were called active. The inconclusive results got no clear call from the source; some entries with a clear call stand among them for comparison. The call rests on the fitted dose curve; tested in HEK293 cells. Where the call is inconclusive, the potency comes from a doubtful curve fit.
# Assay: qHTS for Inhibitors of binding or entry into cells for Lassa Virus; further: nearly all actives have a fitted effect of over 50% in size
# Settings: Lassa virus pseudotype entry inhibition, cell reporter; series mostly up to 37.9 µM
# Potency means the concentration at half of the fitted maximal effect.
row,SMILES,Potency
1,COc1ccc(C(=O)COC(=O)c2cccc(-n3cnnn3)c2)c(OC)c1,"inconclusive: 3.16 µM [activator, partial curve, poor fit]"
2,COc1ccc(-c2nn3c(=O)cc(CN4CCN(C(=O)Nc5ccc(C)c(Cl)c5)CC4)nc3s2)cc1,"inconclusive: 1.58 µM [inhibitor, partial curve, poor fit]"
3,O=Nc1c(-c2c(O)[nH]c3cc(Br)ccc23)[nH]c2ccccc12,"inconclusive: 0.651 µM [activator, full curve]"
4,O=C(NCC(c1ccco1)S(=O)(=O)c1ccc(Cl)cc1)c1ccccc1F (stereo not given),inactive
5,Cc1nnc(SCc2cc(=O)[nH]c(/N=C(\N)Nc3ccccc3)n2)s1,"inconclusive: 2.51 µM [inhibitor, single point]"
6,CSCCC(NC(=O)c1ccccc1Cl)C(=O)N1CCCC(C)C1 (stereo not given),inactive
7,COc1ccc(/C=C/C(=O)OCC(=O)c2c(N)n(C)c(=O)n(C)c2=O)c(OC)c1,"inconclusive: 0.0891 µM [inhibitor, full curve, poor fit]"
8,Cc1onc(-c2ccccc2)c1C(=O)N/N=C/C(Br)=C/c1ccccc1,"inconclusive: 0.291 µM [inhibitor, partial curve, poor fit]"
9,O=C(Nc1ccc(Br)cc1)C1CCN(S(=O)(=O)c2cccc3nsnc23)CC1,"inconclusive: 35.5 µM [activator, single point]"
10,COc1ccc(CN2CCNC(=O)C2CC(=O)NC2CCCC2)cc1OC (stereo not given),inactive
11,COc1ccc(-c2cc(C3CCN(Cc4cccc(C(F)(F)F)c4)CC3)[nH]n2)cc1,"inconclusive: 35.5 µM [inhibitor, single point]"
12,CC(=O)Nc1nc(CC(C)C)cc(-c2ccco2)c1C#N,"inconclusive: 1.64 µM [activator, partial curve, poor fit]"
13,O=C(Cn1c(=O)n(-c2ccccc2)c(=O)c2sc3ccccc3c21)N1CCCC1,inactive
14,C/C(=N/Oc1nc(C)cc(C)n1)c1ccc(Br)cc1,inactive
15,O=S(=O)(c1cccc(C(F)(F)F)c1)n1c(/C=C/c2ccccc2)nc2ccccc21,"inconclusive: 3.16 µM [activator, full curve]"
16,COc1ccc(C)cc1NC(=O)NC1CCCCCCC1,"inconclusive: 3.55 µM [activator, full curve, poor fit]"
17,O/N=C/c1cc(Br)ccc1OCc1ccc(F)cc1,"inconclusive: 32.6 µM [activator, partial curve, poor fit]"
18,CCOC(=O)c1cccc(NC(=O)CSc2nnc(-c3ccncc3)n2CCCOC)c1,inactive
19,CCCCCCn1c(N)c(C(=O)NCCN2CCOCC2)c2nc3ccccc3nc21,"inconclusive: 35.5 µM [inhibitor, single point]"
20,CCOC(=O)C1=C(c2ccccc2)NC(SCC(=O)Nc2ccc(C)cc2)=C(C#N)C1c1ccco1 (stereo not given),inactive
21,CC(C)C1C(=O)N(Cc2cn(CCC3OCCO3)nn2)CCS(=O)(=O)N1Cc1ccc(-c2ccc(F)cc2Cl)cc1 (stereo not given),"inconclusive: 15.8 µM [inhibitor, partial curve]"
22,CCOC(=O)C1CCN(c2c(Nc3ccc4c(c3)OCCO4)c(=O)c2=O)CC1,inactive

# Among those listed so far, 3 have an NH in an aromatic ring.
row,SMILES,Potency
3,O=Nc1c(-c2c(O)[nH]c3cc(Br)ccc23)[nH]c2ccccc12,"inconclusive: 0.651 µM [activator, full curve]"
5,Cc1nnc(SCc2cc(=O)[nH]c(/N=C(\N)Nc3ccccc3)n2)s1,"inconclusive: 2.51 µM [inhibitor, single point]"
11,COc1ccc(-c2cc(C3CCN(Cc4cccc(C(F)(F)F)c4)CC3)[nH]n2)cc1,"inconclusive: 35.5 µM [inhibitor, single point]"

# The list goes on.

row,SMILES,Potency
1,COc1cccc(-c2nn(-c3ccc(C)cc3)cc2C(=O)NCC(c2cccs2)N2CCOCC2)c1 (stereo not given),"inconclusive: 11.2 µM [inhibitor, single point]"
2,CN(C)S(=O)(=O)Oc1cccc(C(=O)Nc2ccc([N+](=O)[O-])cc2)c1,"inconclusive: 1.41 µM [inhibitor, partial curve, poor fit]"
3,Cn1c(=O)c(C(=O)NCC2CCCO2)c(O)c2ccccc21 (stereo not given),"inconclusive: 1.12 µM [activator, partial curve, poor fit]"
4,Cc1ccc(OCCOc2cccc(C=C3C(=O)NC(=O)NC3=O)c2)c(C)c1,"inconclusive: 1.41 µM [inhibitor, full curve, poor fit]"
5,Cc1ccc(C(=O)Nc2scc(-c3ccccc3)c2C(=O)O)cc1,"inconclusive: 15.8 µM [inhibitor, single point]"
6,Cc1ccc(/C=N/n2c(C3CCCCC3)n[nH]c2=S)cc1,"inconclusive: 1 µM [inhibitor, full curve, poor fit]"
7,COc1ccc(C(C)=O)cc1COC(=O)c1cc(=O)c2ccccc2o1,inactive
8,Cc1cccc(NC(=S)N=Nc2c(O)[nH]c3ccccc23)c1,"inconclusive: 23.1 µM [inhibitor, single point]"
9,Clc1ccc(N/N=C/c2ccncc2)cc1Cl,"inconclusive: 3.55 µM [activator, full curve]"
10,CC(C)CNC(=O)COC(=O)c1c2c(nc3ccccc13)/C(=C\c1cccs1)CC2,"inconclusive: 35.5 µM [inhibitor, single point]"
11,CCOc1c(Cl)cc(C(=O)Nc2ccccc2C(=O)O)cc1Cl,"inconclusive: 8.2 µM [activator, partial curve, poor fit]"
12,Cc1ccc(CNC(=O)N2CCN(S(=O)(=O)c3ccccc3)CC2)cc1,"inconclusive: 35.5 µM [inhibitor, single point]"
13,Cc1cc(C(=O)CCC(=O)NC(C)c2ccc(S(N)(=O)=O)cc2)c(C)s1 (stereo not given),"inconclusive: 4.47 µM [activator, full curve, poor fit]"
14,CC(=O)Nc1c(Br)cc2c(c1Br)C(=O)c1ccccc1-2,inactive
15,C=CCOc1c(Br)cc(CNn2c(C)n[nH]c2=S)cc1OC,inactive
16,COc1ccc(Cc2nnc(SCC(=O)c3ccccc3)o2)cc1,"inconclusive: 11.2 µM [inhibitor, partial curve, poor fit]"
17,CCCOC(=O)c1ccc(NC(=O)Cc2csc(C)n2)cc1,inactive
18,CSc1ncccc1C(=O)N(C)CC(=O)Nc1cccc(F)c1,"inconclusive: 3.16 µM [activator, full curve, poor fit]"
19,CCOC(=O)C(NC(=O)c1cccc(Cl)c1)(OCc1ccccc1)C(F)(F)F (stereo not given),"inconclusive: 20 µM [inhibitor, single point]"
20,O=C(Nc1ccc(S(=O)(=O)NC2=NCCCCC2)cc1)c1ccc([N+](=O)[O-])s1,"inconclusive: 17.8 µM [inhibitor, partial curve, poor fit]"
21,O=C(Nc1ccccc1C(=O)Nc1ccccc1C(=O)NCc1ccco1)c1ccco1,"inconclusive: 29.1 µM [inhibitor, single point]"
22,CCOc1cc(/C=C2\SC(=N)N(c3nccs3)C2=O)ccc1OCCN1CCOCC1,"inconclusive: 5.8 µM [inhibitor, partial curve, poor fit]"

# Looked up by structure from the list above (2):
row,SMILES,Potency
7,COc1ccc(C(C)=O)cc1COC(=O)c1cc(=O)c2ccccc2o1,inactive
20,O=C(Nc1ccc(S(=O)(=O)NC2=NCCCCC2)cc1)c1ccc([N+](=O)[O-])s1,"inconclusive: 17.8 µM [inhibitor, partial curve, poor fit]"

# Additional compounds follow:

row,SMILES,Potency
1,CCOC(=O)c1sc(NC(=O)c2cc(CC)on2)c(C(=O)OCC)c1C,inactive
2,CC(C)(C)N1C(=O)NC(=O)/C(=C\c2ccc3c(c2)CCN3CCCCl)C1=O,"inconclusive: 10 µM [inhibitor, partial curve, poor fit]"
3,Cc1ccc(NC(=O)Cn2cc(C(=O)c3ccccc3)c3ccccc32)c(C)c1,"inconclusive: 35.5 µM [inhibitor, single point]"
4,O=C(CSc1nnc2c3ccccc3c3ccccc3c2n1)Nc1ccccc1F,inactive
5,N#C/C(=C\c1cc([N+](=O)[O-])c(N2CCCCC2)cc1N1CCCCC1)c1nn(-c2ccccc2)c(N)c1C#N,inactive
6,Cc1ccc(CNC(=O)c2ccc(CSCc3ccc(C)cc3)o2)cc1,"inconclusive: 35.5 µM [inhibitor, single point]"
7,CNC(=O)/C(C#N)=C/c1ccc(-c2ccc(OC)cc2[N+](=O)[O-])o1,inactive
8,CCC(=O)N1CCc2cc(Br)cc(S(=O)(=O)N(C)c3ccc(OC)cc3OC)c21,"inconclusive: 28.2 µM [inhibitor, single point]"
9,CNC(=O)c1nnsc1S(=O)c1ccc(Cl)cc1 (stereo not given),"inconclusive: 35.5 µM [inhibitor, single point]"
10,Cc1nc2c(C#N)c(C)[nH]n2c(=O)c1Cc1ccccc1,inactive
11,C=CCn1c(SCC(=O)c2c(N)n(CCC)c(=O)n(C)c2=O)nnc1-c1ccncc1,"inconclusive: 11.2 µM [activator, single point]"
12,CC(=O)C1=C(C)NC(SCC(=O)c2cc(Cl)ccc2Cl)=C(C#N)C1c1ccco1 (stereo not given),"inconclusive: 1.64 µM [inhibitor, full curve]"
13,COCCCNC(=O)CSc1c2c(nc3ccc(Cl)cc13)CCCC2,"inconclusive: 20 µM [inhibitor, single point] and inconclusive: 35.5 µM [inhibitor, partial curve, poor fit]"
14,COc1ccc(NC(=O)CSc2nc(=O)n(CCN(C)C)c3c2CCCC3)cc1,"inconclusive: 1.26 µM [activator, single point]"
15,CC(NC(=O)COC(=O)c1ccc2c(c1)OCCO2)c1ccccc1 (stereo not given),"inconclusive: 35.5 µM [inhibitor, single point]"
16,Cc1ccc(/C=N/NC(=O)c2ccc3c(c2)OCCO3)s1,"inconclusive: 17.8 µM [inhibitor, single point]"
17,CCOc1ccccc1OCC(=O)N/N=C(\C)Cc1ccc(OC)cc1,"inconclusive: 0.206 µM [inhibitor, full curve, poor fit]"
18,CC1(c2ccccc2)CC(C)(C)N2C(=O)Cc3cccc1c32 (stereo not given),"inconclusive: 1.26 µM [inhibitor, single point]"
19,Nc1ccc2c3c(cccc13)-c1ccccc1-2,inactive
20,CCN(c1ccccc1)c1nnc(NC(=O)Nc2cccc(Br)c2)s1,inactive
21,C=Cc1ccc(CSc2nc(-c3ccccc3Cl)nc3c2Cc2c(CO)cnc(C)c2O3)cc1,inactive
